{
  "source": "patent US9408817B2",
  "about": "“Methods for detecting inflammatory bowel disease in a feline” (Hill's Pet Nutrition, Inc., priority 2005, dated 2016)",
  "type_in_all_cases": "cell-based",
  "key": {"[1]": {"test_system": "lymphocytes obtained from the blood of healthy cats and cats with IBD", "assay": "in vitro lymphocyte proliferation assay (BrdU ELISA, PHA-stimulated)", "conditions": "both 12.5 and 25 μM", "protocol": "The study utilizes eleven healthy cats and eleven cats with IBD, The cats with IBD are diagnosed by an intestinal biopsy, and have a history of chronic diarrhea. For six weeks, all cats are fed a nutritionally adequate dry food indicated for gastrointestinal distress. Blood is drawn from all cats at four, five, and six weeks. Samples with equal amounts of lymphocytes are used in an in vitro lymphocyte proliferation assay.\nMore specifically, 4.5 ml blood is mixed with 4.5 ml HBSS (Hank's Balanced Salt Solution)+25 mM HEPES. 4 ml of Ficoll-Paque Plus (Amersham) are slowly injected under the diluted blood. The mixture is centrifuged for twenty minutes at 500 g at 25° C. The upper layer is discarded. The lymphocytes are transferred into a clean tube, resuspended in 6 ml of HBSS+25 mM HEPES, and then centrifuged for ten minutes at 200 g at 25° C. The supernatant is discarded, and the lymphocytes are washed with 6 ml of HBSS. This centrifugation and wash step is repeated two more times. The washed lymphocytes are then resuspended in 5 ml of AIM medium (Invitrogen). […]\nThe lymphocyte proliferation assay is performed utilizing Amersham's Biotrak cell proliferation ELISA system, version 2. […] 25 μl 1M sulfuric acid is added to stop the reaction, and the plate is read on a fusion microplate reader (PerkinElmer) within five minutes."}, "[2]": {"test_system": "IL-2", "assay": "cytokine expression by RT-PCR in PHA-stimulated lymphocytes: IL-2", "conditions": "cats with IBD", "protocol": "(§1) Lymphocytes are obtained from the blood of healthy cats and cats with IBD as described in Example 1 and then treated with DHA or EPA also as described in Example 1. Ribonucleic acid (RNA) is extracted from all samples, and real time polymerase chain reaction (RT-PCR) is performed to examine the changes in the level of expression of the following cytokines: interleukins 1α, 1β, 2, 6, and 10 (IL-1α, IL-1β, IL-2, IL-6, and IL-10), macrophage inhibitory factor (MIF), interferon gamma (IFN-γ), and transforming growth factor beta (TGF-β)."}, "[3]": {"test_system": "IFN-γ", "assay": "cytokine expression by RT-PCR in PHA-stimulated lymphocytes: IFN-γ", "conditions": "cats with IBD", "protocol": "as §1"}, "[4]": {"test_system": "lymphocytes from the cats with IBD", "assay": "cytokine profile of lymphocytes (cytokine PCR analysis, overall)", "conditions": "PHA, compared with healthy cats treated with PHA alone"}},
  "note": "“Also recorded” adds a separate entry of the source. For at least one compound, name, drawing or mass did not settle the structure.",
  "data": [
    {"smiles": "CC/C=C\\C/C=C\\C/C=C\\C/C=C\\C/C=C\\C/C=C\\CCC(=O)O", "note": "[DHA, docosahexaenoic acid]", "values": [
      {"measurement": "effect on lymphocyte proliferation (in words)", "setting": "[1]", "result": "results in a decrease in lymphocyte proliferation"},
      {"measurement": "effect on level of expression of IL-2 (in words)", "setting": "[2]", "result": "decreases the level of expression"},
      {"measurement": "effect on level of expression of IFN-γ (in words)", "setting": "[3]", "result": "decreases the level of expression"},
      {"measurement": "response of the lymphocytes to mitogen stimulation (cytokine expression levels, in words)", "setting": "[4]", "result": "normalizes the response of the lymphocytes from the cats with IBD to mitogen stimulation"}
    ]},
    {"smiles": "CC/C=C\\C/C=C\\C/C=C\\C/C=C\\C/C=C\\CCCC(=O)O", "note": "[EPA, eicosapentaenoic acid]", "values": [
      {"measurement": "effect on lymphocyte proliferation (in words)", "setting": "[1]", "result": "does not result in a decrease in lymphocyte proliferation; also recorded: does not decrease the level of lymphocyte proliferation in vitro"},
      {"measurement": "effect on level of expression of IL-2 (in words)", "setting": "[2]", "result": "decreases the level of expression"},
      {"measurement": "effect on level of expression of IFN-γ (in words)", "setting": "[3]", "result": "decreases the level of expression"},
      {"measurement": "response of the lymphocytes to mitogen stimulation (cytokine expression levels, in words)", "setting": "[4]", "result": "normalizes the response of the lymphocytes from the cats with IBD to mitogen stimulation"}
    ]}
  ]
}
